Literature values as cited in patent publication US8263591B2, “Bicyclic amides for enhancing glutamatergic synaptic responses” (Cortex Pharmaceuticals, Inc., priority 2007, dated 2012).
At least one structure is not confirmed: it was looked up by name or label, or the drawing left a doubt.

System: AMPA receptors
Conditions: cited from earlier work

Which “concentration at which the drug works” value does the source give for `COc1ccc(C(=O)N2CCCC2=O)cc1` [aniracetam, N-anisoyl-2-pyrrolidinone] here?
The value was “approx. 1000 μM”.
